# Measurements: PubChem BioAssay AID445 (National Center for Advancing Translational Sciences (NCATS), 2006)
# This is one part of the list. The main result of the screen is listed elsewhere. These columns were measured beside it and carry no call. The list favours compounds with an active or inconclusive main result. The note in brackets gives the kind of curve behind each potency; many fits are weak.
# Assay: IkB Signaling
# Conditions: ABC-DLBCL IkBa-CBG/CBR dual luciferase ratio (green luciferase fused to IkBa over red control in OCI-Ly3 lymphoma cells), 4 h
# Method in brief: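 In this assay, an IκBα–CBG68 fusion accumulates when IKK-driven degradation is blocked; native CBR normalizes for cell number. OCI-Ly3 cells were treated 4 h with compound and doxycycline, then green and red light read after Chroma-Glo addition.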
# [1] = measured here: control luc red channel unless noted
structure (smiles),measurement,setting,value
Cc1cccc(-n2ccnc2SCC(=O)Nc2cccc3ccccc23)c1C,AC50,[1],"25.1 µM [falling, single point]"
O=C(Cn1c(=O)n(Cc2ccc3c(c2)OCO3)c(=O)c2oc3ccccc3c21)Nc1ccccc1F,AC50,[1],"3.16 µM [rising, partial curve]"
Cc1cccc(-n2c(C)nc3cc(C(=O)NCCC4=CCCCC4)ccc32)c1,AC50,[1],"39.8 µM [falling, single point]"
COc1ccc(NC(=O)CCNS(=O)(=O)c2cccc3nsnc23)cc1Cl,AC50,[1],"25.1 µM [falling, single point]"
CCn1c(=O)cc(OCC(=O)N2CCN(c3ccc(OC)cc3)CC2)c2ccccc21,AC50,[1],"10 µM [falling, partial curve]"
Cc1ccccc1Cc1c(C)nc2c(C(=O)NCc3ccco3)cnn2c1C,AC50,[1],"7.94 µM [falling, partial curve]"
COc1ccc(CCNC(=O)c2cc3sccc3n2Cc2ccc(Cl)cc2)cc1OC,AC50,[1],"39.8 µM [falling, single point]"
CCOc1ccccc1CN1CCc2nc(Nc3ccc4c(c3)OCCO4)ncc2C1,AC50,[1],"25.1 µM [falling, single point]"
O=C(Nc1ccc2nc(SCC(=O)N3CCCC3)sc2c1)c1cccc(Cl)c1,AC50,[1],"25.1 µM [falling, single point]"
COc1ccc(NC(=O)Cn2c(=O)n(-c3ccc(C)cc3)c(=O)c3c2cnn3C)cc1,AC50,[1],"0.0398 µM [falling, full curve]"
CC(C)CCNC(=O)C1CCN(c2nc3ccc(Cl)cc3[nH]2)CC1,AC50,[1],"7.94 µM [falling, partial curve]"
Cc1noc(C)c1COC(=O)CCN1c2ccccc2Sc2ccccc21,AC50,[1],"12.6 µM [falling, partial curve]"
Cc1cccn2c(=O)c3cc(C(=O)NCc4cccnc4)c(=N)n(CCCO)c3nc12,AC50,[1],"25.1 µM [falling, partial curve, poor fit]"
COC(=O)c1c(C)oc2ccc(N(C(=O)c3ccncc3)S(=O)(=O)c3c(C)cc(C)cc3C)cc12,AC50,[1],"15.8 µM [falling, partial curve]"
O=C(NCc1ccccc1)c1nc(S(=O)(=O)Cc2ccccc2)ncc1Cl,AC50,[1],"7.94 µM [falling, full curve]"
CN1CCc2nc3sc(C(=O)Nc4ccccc4OC(F)(F)F)c(N)c3cc2C1,AC50,[1],"25.1 µM [falling, partial curve]"
Cc1sc2ncn(CC(=O)N3CCN(c4ccc(Cl)cc4)CC3)c(=O)c2c1S(=O)(=O)N1CCN(c2ncccn2)CC1,AC50,[1],"10 µM [falling, partial curve]"
CSC(=O)CC(=O)NC(=O)c1ccccc1,AC50,[1],"20 µM [falling, partial curve]"
CC1=Nc2cc(C(=O)NCCc3ccccc3)ccc2Sc2c(C)ccc(C)c21,AC50,[1],"3.98 µM [rising, partial curve]"
CC1(C)CC(=O)C(Sc2nnc(-c3ccc(NS(C)(=O)=O)cc3)n2Cc2ccco2)C(=O)C1,AC50,measured here: IkB-luc green channel,"10 µM [rising, partial curve]"
same,AC50,measured here: control luc red channel,"5.01 µM [rising, full curve, poor fit]"
CCCN(CCC)CCNC(=O)c1ccc2c(c1)NC(=O)C(CS(=O)(=O)Cc1cccc(Br)c1)N2 (centres undefined),AC50,[1],"39.8 µM [falling, partial curve]"
COc1ccc(NC(=O)c2ccc3c(SCC(=O)O)c4c(nc3c2)CCC4)c(OC)c1,AC50,[1],"39.8 µM [falling, single point]"
CCOc1ccccc1N1CC(c2nc3ccccc3n2Cc2c(C)cc(C)cc2C)CC1=O (centres undefined),AC50,[1],"20 µM [falling, partial curve]"
Cc1ccccc1C(=O)Nc1c(C)nc(Nc2ccccc2)nc1Nc1ccccc1,AC50,[1],"7.94 µM [falling, full curve]"
c1ccc(Cn2nnc3c(N4CCN(Cc5ccc6c(c5)OCO6)CC4)ncnc32)cc1,AC50,[1],"25.1 µM [falling, partial curve]"
Cc1cccc(N2CCN(C(=O)c3cc4c(=O)n(C)c5ccccc5c4s3)CC2C)c1 (centres undefined),AC50,[1],"15.8 µM [falling, partial curve]"
COc1ccc(NC(=O)c2c(C)oc3ccc(O)c(CN4CCCCCC4)c23)cc1Cl,AC50,[1],"20 µM [falling, single point]"
Cc1cccc(C(=O)Nc2c(C(=O)NCc3ccc(Cl)cc3)sc3nc(C)cc(C)c23)c1,AC50,[1],"31.6 µM [falling, partial curve]"
COc1ccc(OC)c(CCNC(=O)c2cnn(-c3ccccc3Cl)c2C2CCN(C(=O)OC(C)(C)C)CC2)c1,AC50,[1],"25.1 µM [falling, partial curve]"
COc1ccc(CCNC(=O)c2cn(C)c3ccc(S(=O)(=O)N(C)C4CCCCC4)cc3c2=O)cc1OC,AC50,[1],"3.16 µM [rising, full curve]"
CC(=O)Nc1ccc(S(=O)(=O)Nc2cc(-c3cn4ccccc4n3)ccc2C)cc1,AC50,[1],"39.8 µM [falling, partial curve]"
COc1ccccc1NC(=O)C1=C(C)Nc2nnnn2C1c1cc(Br)c(O)c(OC)c1 (centres undefined),AC50,[1],"6.31 µM [falling, partial curve]"
COc1ccc(NC(=O)c2cnc(Nc3ccc(C)c(Cl)c3)c3ccccc23)cc1OC,AC50,[1],"0.631 µM [falling, full curve]"
N#C/C(C(=O)NCc1ccco1)=C1/SC=C(c2ccccc2)N1c1ccccc1,AC50,[1],"25.1 µM [rising, partial curve] [measured here: IkB-luc green channel]"
CC1=Nc2cc(C(=O)NCCc3ccc(Cl)cc3)ccc2Sc2c(C)ccc(C)c21,AC50,[1],"3.98 µM [rising, partial curve]"
c1ccc2c(c1)CCC[C@@H]2C1=NCCN1,AC50,[1],"7.94 µM [rising, partial curve]"
CC1CCCCN1CCCNC(=O)c1cc(Sc2ccc(Cl)cc2)nc2ccccc12 (centres undefined),AC50,[1],"15.8 µM [falling, partial curve]"
CCOC(=O)CC(=O)CSc1nc2ccccc2c(=O)n1CCc1ccc(S(N)(=O)=O)cc1,AC50,[1],"7.94 µM [falling, partial curve]"

# 3 entries drawn at random from those above:
structure (smiles),measurement,setting,value
CC1(C)CC(=O)C(Sc2nnc(-c3ccc(NS(C)(=O)=O)cc3)n2Cc2ccco2)C(=O)C1,AC50,measured here: control luc red channel,"5.01 µM [rising, full curve, poor fit]"
Cc1cccc(C(=O)Nc2c(C(=O)NCc3ccc(Cl)cc3)sc3nc(C)cc(C)c23)c1,AC50,[1],"31.6 µM [falling, partial curve]"
CN1CCc2nc3sc(C(=O)Nc4ccccc4OC(F)(F)F)c(N)c3cc2C1,AC50,[1],"25.1 µM [falling, partial curve]"
